Measurements reported in PubChem BioAssay AID504774 (Drosophila RNAi Screening Center, 2011).
Assay: 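Genes required for cells to withstand methyl methanesulphonate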 (primary screen). System: Drosophila Kc167 cells. Reagent: long dsRNA against Drosophila genes, about 0.25 µg dsRNA per well. Timing: about 6 days: 3 days knock-down, then 3 days with or without MMS. Conditions: methyl methanesulphonate 0.004% (w/v) for 3 days after knock-down. Detection: 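Viability in wells given MMS, read as ATP luminescence, normalised by quantiles plate by plate and averaged across replicates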. Reading the numbers: mean viability with MMS and viability with MMS: higher = more surviving cells after MMS.
The deposit covers about 23,000 reagents; this is a random part of those with a known target gene and a result. 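Values are quantile-normalised luminescence on an arbitrary scale; higher means more cells surviving MMS.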 Further read-outs or replicates are left out here.

CG11052 [DRSC14288] → mean viability with MMS: 3.49e6; viability with MMS, replicate 1: 3.96e6
CG13117 [DRSC02215] → mean viability with MMS: 3.61e6; viability with MMS, replicate 1: 4.11e6
CG7997 [DRSC07052] → mean viability with MMS: 3.46e6; viability with MMS, replicate 1: 3.95e6
CG13068 [DRSC09951] → mean viability with MMS: 3.49e6; viability with MMS, replicate 1: 3.86e6
Trf5 (TBP-related factor 5) [DRSC00412] → mean viability with MMS: 3.52e6; viability with MMS, replicate 1: 3.96e6
Ir48c (Ionotropic receptor 48c) [DRSC06154] → mean viability with MMS: 3.61e6; viability with MMS, replicate 1: 3.93e6
CG3588 [DRSC18473] → mean viability with MMS: 3.50e6; viability with MMS, replicate 1: 4.06e6
Spt3 [DRSC15465] → mean viability with MMS: 3.31e6; viability with MMS, replicate 1: 3.79e6
Cpr47Ee (Cuticular protein 47Ee) [DRSC06343] → mean viability with MMS: 2.48e6; viability with MMS, replicate 1: 2.97e6
Cpr47Ee (Cuticular protein 47Ee) [DRSC23164] → mean viability with MMS: 3.52e6; viability with MMS, replicate 1: 3.96e6
CG31301 [DRSC22164] → mean viability with MMS: 3.29e6; viability with MMS, replicate 1: 3.78e6
c12.1 [DRSC18750] → mean viability with MMS: 3.46e6; viability with MMS, replicate 1: 3.91e6
CG6184 [DRSC15986] → mean viability with MMS: 3.43e6; viability with MMS, replicate 1: 3.99e6
Polr2H (RNA polymerase II, I and III subunit H) [DRSC11642] → mean viability with MMS: 3.13e6; viability with MMS, replicate 1: 3.63e6
Rpe (Ribulose-5-phosphate-3-epimerase) [DRSC06407] → mean viability with MMS: 3.48e6; viability with MMS, replicate 1: 3.87e6
CG14270 [DRSC17913] → mean viability with MMS: 3.38e6; viability with MMS, replicate 1: 3.79e6
CkIIbeta2 (Casein kinase II beta2 subunit) [DRSC07361] → mean viability with MMS: 3.51e6; viability with MMS, replicate 1: 4.05e6
CG11964 [DRSC14447] → mean viability with MMS: 3.56e6; viability with MMS, replicate 1: 4.11e6
CG10338 [DRSC02039] → mean viability with MMS: 3.46e6; viability with MMS, replicate 1: 3.92e6
Uro (Urate oxidase) [DRSC03469] → mean viability with MMS: 3.32e6; viability with MMS, replicate 1: 3.67e6
Msr-110 [DRSC11227] → mean viability with MMS: 3.44e6; viability with MMS, replicate 1: 3.75e6
CG10347 [DRSC19352] → mean viability with MMS: 3.69e6; viability with MMS, replicate 1: 4.23e6
Pex11ab (Peroxin 11a/b) [DRSC07145] → mean viability with MMS: 3.59e6; viability with MMS, replicate 1: 3.96e6
Pp1alpha-96A (Protein phosphatase 1alpha at 96A) [DRSC16795] → mean viability with MMS: 3.45e6; viability with MMS, replicate 1: 3.88e6
Pp1alpha-96A (Protein phosphatase 1alpha at 96A) [DRSC23320] → mean viability with MMS: 3.68e6; viability with MMS, replicate 1: 4.21e6

Limited to “mean viability with MMS” (2 entries from above):
CG3588 [DRSC18473]	3.50e6
Spt3 [DRSC15465]	3.31e6
